# Results: paper doi:10.1101/2023.09.24.558918
# No constants are given. Whether binding was seen depends on the method and setting. A result given as binding can be weak or reduced; the word gives no strength. For some of these results: Sequences can lack the tags named with a protein. For some of these results: In cells and extracts the contact can be indirect.
# T1: Piwi protein (endogenous, Drosophila) (Drosophila (endogenous in adult flies and ovaries)) (UniProt Q9VKM1)
# T1 sequence: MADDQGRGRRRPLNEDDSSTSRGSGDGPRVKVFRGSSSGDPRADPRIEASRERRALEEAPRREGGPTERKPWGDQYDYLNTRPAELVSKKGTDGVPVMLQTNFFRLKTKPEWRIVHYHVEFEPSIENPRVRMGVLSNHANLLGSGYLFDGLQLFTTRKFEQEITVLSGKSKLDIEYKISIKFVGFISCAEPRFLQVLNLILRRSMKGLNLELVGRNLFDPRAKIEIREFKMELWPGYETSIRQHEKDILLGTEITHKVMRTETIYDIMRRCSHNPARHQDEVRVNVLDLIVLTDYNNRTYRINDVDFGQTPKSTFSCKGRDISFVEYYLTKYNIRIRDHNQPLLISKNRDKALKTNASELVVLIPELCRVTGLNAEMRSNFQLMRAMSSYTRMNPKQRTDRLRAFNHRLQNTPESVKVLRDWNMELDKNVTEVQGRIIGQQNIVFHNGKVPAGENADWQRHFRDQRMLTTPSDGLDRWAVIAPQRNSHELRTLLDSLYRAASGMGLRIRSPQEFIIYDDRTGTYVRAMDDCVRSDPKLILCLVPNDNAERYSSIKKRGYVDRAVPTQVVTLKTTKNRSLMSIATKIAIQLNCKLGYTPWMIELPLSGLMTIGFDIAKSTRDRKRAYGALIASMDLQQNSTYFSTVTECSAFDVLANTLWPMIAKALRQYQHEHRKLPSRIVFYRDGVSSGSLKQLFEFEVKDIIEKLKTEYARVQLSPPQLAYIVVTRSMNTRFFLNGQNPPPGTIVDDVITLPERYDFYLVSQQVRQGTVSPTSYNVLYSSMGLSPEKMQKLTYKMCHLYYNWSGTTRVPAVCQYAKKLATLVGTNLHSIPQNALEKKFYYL
# T2: Recombinant GST-Piwi (Drosophila) (UniProt Q9VKM1)
# T2 sequence: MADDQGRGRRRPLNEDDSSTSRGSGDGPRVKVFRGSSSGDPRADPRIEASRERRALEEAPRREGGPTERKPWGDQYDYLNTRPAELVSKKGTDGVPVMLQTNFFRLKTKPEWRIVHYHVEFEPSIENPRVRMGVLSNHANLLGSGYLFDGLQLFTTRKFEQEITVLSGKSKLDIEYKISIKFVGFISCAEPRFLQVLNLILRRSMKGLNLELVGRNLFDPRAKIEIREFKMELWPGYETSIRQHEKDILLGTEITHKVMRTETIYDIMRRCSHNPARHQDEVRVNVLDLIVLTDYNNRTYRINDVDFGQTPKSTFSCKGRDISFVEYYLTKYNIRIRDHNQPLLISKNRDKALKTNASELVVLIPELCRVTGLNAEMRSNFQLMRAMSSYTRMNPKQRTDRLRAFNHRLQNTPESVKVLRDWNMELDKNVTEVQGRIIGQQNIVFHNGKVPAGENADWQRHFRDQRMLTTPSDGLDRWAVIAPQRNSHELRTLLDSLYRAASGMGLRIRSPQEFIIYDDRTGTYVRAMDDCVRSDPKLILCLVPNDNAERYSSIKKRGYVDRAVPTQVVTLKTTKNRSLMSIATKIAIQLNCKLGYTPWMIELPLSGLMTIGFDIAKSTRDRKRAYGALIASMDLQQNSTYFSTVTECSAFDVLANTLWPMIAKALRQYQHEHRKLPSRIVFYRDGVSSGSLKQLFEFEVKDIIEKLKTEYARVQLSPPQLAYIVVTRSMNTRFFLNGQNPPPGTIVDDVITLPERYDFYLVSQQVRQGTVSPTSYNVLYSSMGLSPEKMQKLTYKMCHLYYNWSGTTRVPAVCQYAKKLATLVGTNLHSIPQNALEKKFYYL
# B1: Piwi protein (endogenous, Drosophila) (protein, UniProt Q9VKM1 1-843)
# chain: MADDQGRGRRRPLNEDDSSTSRGSGDGPRVKVFRGSSSGDPRADPRIEASRERRALEEAPRREGGPTERKPWGDQYDYLNTRPAELVSKKGTDGVPVMLQTNFFRLKTKPEWRIVHYHVEFEPSIENPRVRMGVLSNHANLLGSGYLFDGLQLFTTRKFEQEITVLSGKSKLDIEYKISIKFVGFISCAEPRFLQVLNLILRRSMKGLNLELVGRNLFDPRAKIEIREFKMELWPGYETSIRQHEKDILLGTEITHKVMRTETIYDIMRRCSHNPARHQDEVRVNVLDLIVLTDYNNRTYRINDVDFGQTPKSTFSCKGRDISFVEYYLTKYNIRIRDHNQPLLISKNRDKALKTNASELVVLIPELCRVTGLNAEMRSNFQLMRAMSSYTRMNPKQRTDRLRAFNHRLQNTPESVKVLRDWNMELDKNVTEVQGRIIGQQNIVFHNGKVPAGENADWQRHFRDQRMLTTPSDGLDRWAVIAPQRNSHELRTLLDSLYRAASGMGLRIRSPQEFIIYDDRTGTYVRAMDDCVRSDPKLILCLVPNDNAERYSSIKKRGYVDRAVPTQVVTLKTTKNRSLMSIATKIAIQLNCKLGYTPWMIELPLSGLMTIGFDIAKSTRDRKRAYGALIASMDLQQNSTYFSTVTECSAFDVLANTLWPMIAKALRQYQHEHRKLPSRIVFYRDGVSSGSLKQLFEFEVKDIIEKLKTEYARVQLSPPQLAYIVVTRSMNTRFFLNGQNPPPGTIVDDVITLPERYDFYLVSQQVRQGTVSPTSYNVLYSSMGLSPEKMQKLTYKMCHLYYNWSGTTRVPAVCQYAKKLATLVGTNLHSIPQNALEKKFYYL
# Tests used:
# [1] = target: T1, Piwi protein (endogenous, Drosophila) (Drosophila (endogenous in adult flies and ovaries)); assay: co-IP
# [2] = target: T2, Recombinant GST-Piwi (Drosophila); assay: pull-down
# [3] = target: Recombinant 6X His-Flag-DNMT3L; assay: pull-down
# [4] = target: FLAG-DNMT3L expressed in transgenic Drosophila; assay: co-IP
molecule,measurement,setting,value
FLAG-DNMT3L expressed in transgenic Drosophila,binding,[1],binds
Recombinant 6X His-Flag-DNMT3L,binding,[2],binds
B1,binding,[3],binds
same,binding,[4],binds
